The test in a line: qHTS Assay to Find Inhibitors of Chronic Active B-Cell Receptor Signaling. Particulars: ABC-DLBCL IkBa-CBG/CBR reporter, luminescence ratio (green luciferase fused to IkBa over red control in TMD8 lymphoma cells), 4 h. An outline of the steps:
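Concentration-response series (up to 46 uM) were applied to TMD8 dual-reporter cells for 4 h at 37C with doxycycline. Green/red ratio, after filter-overlap correction, defined %Activity; red signal alone was normalised to basal cells and zero luminescence.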

Setting [1] is: measured here: CBR red luminescence, cell number.

This is one part of the list. Shown are side measurements of this screen, not its main read-out; they come without a call. Compounds called inactive in the main read-out are mostly missing here. The note in brackets gives the kind of curve behind each potency; many fits are weak.

For `COC(=O)[C@H](CC(C)C)N1Cc2cc(OC)cc(OC)c2-c2ccccc2S1(=O)=O`, under setting [1], the AC50 is 5.8 µM [rising, full curve, poor fit].

On to `COc1cc(C(=O)OCC(=O)NCCN2C(=O)CSC2=O)ccc1OCc1c(C)noc1C`, for which the concentration at half-maximal activity (AC50) under setting [1] was 17.8 µM [rising, partial curve, poor fit].

For the molecule `O=C(OCc1cnc(Cl)s1)c1cccc(Cl)c1Cl`, the concentration at half-maximal activity (AC50) under setting [1] was 29.1 µM [rising, single point].

For the molecule `O=C(Nc1cc(Cl)ccc1-n1cncn1)c1ccc([N+](=O)[O-])o1`, under setting [1], the half-maximal activity concentration (AC50) is 9.2 µM [falling, partial curve, poor fit].

Turning to `O=c1cc(-c2ccccc2)[nH]n1-c1ccc([N+](=O)[O-])cc1`, the AC50 under setting [1] is 0.562 µM [rising, partial curve].

Turning to `COc1ccccc1-c1nnc2sc(COc3ccc(Cl)cc3Cl)nn12`, under setting [1], the concentration at half-maximal activity (AC50) was 7.08 µM [falling, full curve, poor fit].

Turning to `O=C(NC1CCCC1)C1(c2ccccc2)CCN(S(=O)(=O)c2ccccc2)CC1`, the AC50 under setting [1] was 2.31 µM [falling, partial curve, poor fit].

Regarding `Cc1cccn2c(=O)nc(SCC(=O)c3ccc(Cl)cc3)nc12`, the concentration at half-maximal activity (AC50) under setting [1] is 29.1 µM [falling, single point].

With `CCCC(=O)C1=C(c2cccc(OC)c2)N(C(=O)CCC)n2c(C)nnc2S1`, the AC50 under setting [1] was 11.2 µM [falling, single point].

With `Fc1ccc(SCCc2ccccn2)cc1`, the AC50 under setting [1] was 35.5 µM [rising, single point].

With `COc1ccc(NS(=O)(=O)c2cc3c4c(c2)CCN4C(=O)CC3)cc1OC`, the half-maximal activity concentration (AC50) under setting [1] is 2.31 µM [rising, single point].

As for `CCc1ccc(NC(=S)NC(=O)CC(C)C)cc1`, the AC50 under setting [1] was 7.31 µM [rising, partial curve, poor fit].

As to `O=C(CC(Nc1ccccc1Cl)C(=O)O)c1ccccc1` (configuration not stated), under setting [1], the AC50 is 35.5 µM [falling, single point].

In the case of `Cn1c(SCC(=O)Nc2ccccc2)nc(O)cc1=O`, the AC50 under setting [1] is 14.1 µM [falling, partial curve].

Turning to `O=C(NN=C1C2CC3CC(C2)CC1C3)c1ccccc1O`, the AC50 under setting [1] is 1.58 µM [falling, full curve].

On to `CCC(C)(C)NC(=O)C(c1ccccn1)N(C(=O)c1csnn1)c1ccc(C)cc1` (configuration not stated), for which the concentration at half-maximal activity (AC50) under setting [1] is 10 µM [rising, partial curve, poor fit].

Take `O=C(COC(=O)c1ccc(Oc2ccccc2)cc1)Nc1nnc(-c2ccccc2)o1`: the half-maximal activity concentration (AC50) under setting [1] was 29.1 µM [rising, single point] and the half-maximal activity concentration (AC50) (measured here: IkBa-CBG green luminescence) is 29.1 µM [falling, single point].

In the case of `N#CC1(NC(=O)COC(=O)c2cc(O)c3ccccc3c2O)CCCCC1`, the AC50 under setting [1] is 23.1 µM [falling, single point].

Take `COc1ccc(CCN2CC(C(=O)NCCc3ccccc3)CC2=O)cc1OC` (configuration not stated): under setting [1], the AC50 was 12.6 µM [rising, single point].

Regarding `O=C(CC1SC(N2CCCCC2)=NC1=O)Nc1ccc(C(=O)Nc2ccccc2)cc1` (configuration not stated), the AC50 under setting [1] was 6.51 µM [rising, single point].

Regarding `Cc1nc(C)c(CC(=O)N2CCc3c([nH]c4ccccc34)C2c2ccccn2)s1` (configuration not stated), under setting [1], the AC50 is 35.5 µM [falling, single point].

Take `Cc1cccc(NC(=O)C2CCCN(S(=O)(=O)c3ccc4c(c3)oc(=O)n4C)C2)c1` (configuration not stated): the concentration at half-maximal activity (AC50) under setting [1] is 35.5 µM [falling, partial curve, poor fit].

In the case of `S=C(NCCCN1CCOCC1)N1CCN(c2cccc(Cl)c2)CC1`, the AC50 under setting [1] is 35.5 µM [falling, partial curve, poor fit].

Regarding `Cc1ccc(C(=O)N/N=C\c2ccncc2)s1`, the half-maximal activity concentration (AC50) under setting [1] was 2.82 µM [rising, partial curve, poor fit].

With `Cc1ccc(C2CC(C(F)(F)F)n3nc(C(=O)NCc4c(C)nn(C)c4C)c(Cl)c3N2)cc1` (configuration not stated), under setting [1], the AC50 is 12.6 µM [falling, partial curve].

In the case of `Nc1c(C(=O)Nc2ccc3c(c2)OCCO3)nnn1Cc1ccc(Br)cc1`, under setting [1], the AC50 is 32.6 µM [rising, single point].

On to `Cc1cc(C)n2nc(C(=O)Nc3ccc4c(c3)OCCO4)nc2n1`, for which the AC50 under setting [1] is 29.1 µM [falling, single point].

As for `CCCCC(=O)OCC(=O)Nc1cccc(S(=O)(=O)NC2=NCCCCC2)c1`, under setting [1], the concentration at half-maximal activity (AC50) is 14.1 µM [falling, partial curve].

As for `O=C(C(=O)N1CCN(c2cccc(Cl)c2)CC1)c1cn(CC(=O)N2CCOCC2)c2ccccc12`, the AC50 under setting [1] is 35.5 µM [falling, partial curve, poor fit].

Regarding `c1nc(N2CCCC2)c2[nH]cnc2n1`, under setting [1], the AC50 is 1.84 µM [falling, full curve, poor fit].

For `O=C(c1ccc(Cl)cc1)N1CCCOC1`, the concentration at half-maximal activity (AC50) under setting [1] was 29.1 µM [rising, single point].

Take `CCOC(=O)Nc1c(C(=O)OC)[nH]c2cccc(OC)c12`: the AC50 under setting [1] is 4.61 µM [rising, single point].

Take `Cc1c(NC(=O)c2cc3c(s2)-c2ccccc2OC3)cccc1[N+](=O)[O-]`: the AC50 under setting [1] was 29.1 µM [falling, single point].

With `Cc1cccc(-n2nnc(C(=O)Nc3ccc(F)cc3)c2N)c1`, the AC50 under setting [1] is 1.46 µM [falling, full curve].

Regarding `O=C(NC1CCCCCCC1)c1ccco1`, under setting [1], the AC50 is 6.51 µM [falling, partial curve, poor fit].

With `Cc1ccc(Nc2nc3ccccc3[nH]2)nc1`, the half-maximal activity concentration (AC50) under setting [1] is 16.4 µM [falling, partial curve, poor fit].

Take `CC1C/C(=C\c2ccccc2[N+](=O)[O-])c2nc3ccccc3c(C(=O)O)c2C1` (configuration not stated): the half-maximal activity concentration (AC50) under setting [1] is 20 µM [rising, single point].

Take `C/C(CC(=O)Nc1ccc(Cl)cc1Cl)=N\NC(=O)C(=O)N1CCCC1`: the AC50 under setting [1] was 28.2 µM [falling, single point].

For `Cc1cccc(C)c1NC(=O)c1c[nH]c2ccccc12`, under setting [1], the AC50 was 25.1 µM [rising, partial curve, poor fit].

Consider `Cc1ccc(N(CC(=O)Nc2cc(C)cc(C)c2)S(=O)(=O)c2c(C)noc2C)cc1`, for which, under setting [1], the AC50 was 7.08 µM [falling, full curve, poor fit].

Consider `NC(=O)c1ccccc1NC(=O)/C=C/c1ccccc1`, for which the AC50 under setting [1] is 2.91 µM [falling, full curve].
